Experimental data as given in PubChem BioAssay (EPA / NIEHS).
Inconclusive results, whose numbers are uncertain, are shown with a selection of clear calls. Potencies beside an inconclusive call are fits to weak or partial responses and may not hold up. The source made the active and inactive calls. The calls were made as follows: active = hit-call score of the fitted dose curve at least 0.9, where 1 is the maximum; inconclusive = response in the unintended direction; inactive = score below 0.9.

Read-out: alkyl and aryl transferase (GSTA2), GSTA2 (gene 2939)
Assay: CLD_GSTA2_6hr: CellzDirect (CLD) Gene Expression Assay for alkyl and aryl transferase (GSTA2) at 6 hours (AID 2283666)
Protocol: CLD_6hr is a cell-based, multiplexed-readout assay that uses hepatocyte, a human liver primary cell, with measurements taken at 6 hours after chemical dosing in a 96-well plate.CLD_GSTA2_6hr is one of 16 assay component(s) measured or calculated from the CLD_6hr assay. It is designed to make measurements of mRNA induction, a form of inducible reporter, as detected with chemiluminescence signals by Quantitative Nuclease Protection Assay (qNPA) technology.Data from the assay component CLD_GSTA2_6hr was analyzed at the endpoint, CLD_GSTA2_6hr, in the positive analysis fitting direction relative to DMSO as the negative control and baseline of activity. Using a type of inducible reporter, gain-of-signal activity can be used to understand changes in the reporter gene as they relate to the gene GSTA2. Furthermore, this assay endpoint can be referred to as a primary readout. To generalize the intended target to other relatable targets, this assay endpoint is annotated to the transferase intended target family, where subfamily is alkyl and aryl transferase.
Human hepatocyte cultures were treated daily for two consecutive days with fresh dosing solutions containing appropriate concentrations of the 320 ToxCast chemicals (chemical identities were blinded to CellzDirect and other ToxCast collaborators), vehicle control (0.2% DMSO), and positive control inducers as summarized in Table 1. Due to the large number of treatment groups and chemicals examined, the ToxCast chemicals were divided into two groups (spanning two independent cultures of hepatocytes from separate donor preparations (Hu778: ToxCast plates 1 and 2; Hu776: ToxCast plates 3 and 4). Each preparation of human hepatocyte cultures was treated with respective vehicle control, medium only control, set of six positive controls/reference chemicals for the five hepatic receptor pathways, and a subset of eight of the ToxCast chemicals (indoxacarb, pyrithiobac-sodium, norflurazon, cyhalofop-butyl, methomyl, thiram, acetochlor, and propiconazole). These replicate data, coupled with internal replicates designed within the blinded ToxCast chemical library, provided additional data to evaluate interindividual differences between hepatocyte preparations and their potential impact on chemical profiles.Cell morphology and integrity were evaluated using phase-contrast microscopy as an indicator of hepatocyte cell health (Tyson & Green, 1987). Cultures for each treatment group (i.e., media, vehicle [0.2% DMSO], positive control inducers [multiple concentrations], and the ToxCast chemicals [multiple concentrations]) were observed and cell morphology was assessed relative to vehicle control cultures at each harvest time point (0, 6, 24, or 48 h). […] Images were evaluated at the conclusion of the study to assess changes in cell integrity and account for the effects of chemical exposure on uncharacteristic changes in concentration-dependent gene expression profiles. The results from these determinations of apparent cytotoxicity were annotated (yes/no) alongside the corresponding qNPA data for reference.At the conclusion of each treatment period, hepatocyte cultures (96-well) were washed with 1 volume of HBSS, lysed by addition of 25 ul ArrayPlate lysis buffer (HTG, Tucson, AZ), and 70 ul/well of Denaturation Oil, denatured by incubation at 95C for 10 min, and frozen at approximately -70C until analysis by nuclease protection assay (qNPA) (Roberts et al., 2007). For qNPA analysis, cell lysates were thawed at 50C for approximately 30 min, qNPA probes were added, and samples were incubated at 95C for 10 min to begin the detection process by denaturing the target RNA, dissociating the duplexes and secondary structure hybridization. At the conclusion of the hybridization period, S1 nuclease reagent was added to each sample to digest all nonprotected nucleotides at 50C for 60-90 min. […]

| Compound | AC50 | outcome |
| --- | --- | --- |
| FC(F)C(F)(F)OCC(Cn1cncn1)c1ccc(Cl)cc1Cl (stereo not given) | inconclusive: 6.2 µM | – |
| CC(C1CC1)C(O)(Cn1cncn1)c1ccc(Cl)cc1 (stereo not given) | inconclusive: 20 µM | – |
| CCNC(=O)NC(=O)C(C#N)=NOC | – | inactive |
| O=C(O)c1nc(Cl)ccc1Cl | inconclusive: 7.87 µM | – |
| COCC(C)N(C(=O)CCl)c1c(C)csc1C (stereo not given) | – | inactive |
| CS/C(C)=N/OC(=O)N(C)SN(C)C(=O)O/N=C(\C)SC | inconclusive: 20 µM | – |
| COC(=O)c1ccccc1S(=O)(=O)NC(=O)Nc1nc(C)nc(OC)n1 | inconclusive: 20 µM | – |
| CCCC(=NOCC)C1=C(O)CC(CC(C)SCC)CC1=O (stereo not given) | inconclusive: 20 µM | – |
| CCOP(=S)(OCC)SCCSCC | inconclusive: 20 µM | – |
| CC(=NC#N)N(C)Cc1ccc(Cl)nc1 | inconclusive: 20 µM | – |
| C=CCC1=C(C)[C@@H](OC(=O)[C@@H]2[C@@H](C=C(C)C)C2(C)C)CC1=O | – | inactive |
| CCCN(CC)CC1COC2(CCC(C(C)(C)C)CC2)O1 (stereo not given) | – | inactive |
| CON=C(C(=O)OC)c1ccccc1CON=C(C)c1cccc(C(F)(F)F)c1 | inconclusive: 20 µM | – |
| CC(Oc1cccc(Cl)c1)C(=O)O (stereo not given) | – | inactive |
| CCOC(=O)CC(SP(=S)(OC)OC)C(=O)OCC (stereo not given) | – | inactive |
| CCCSP(=O)(OCC)Oc1ccc(Br)cc1Cl (stereo not given) | inconclusive: 20 µM | – |
| CC(C)N(C(=O)SCC(Cl)=C(Cl)Cl)C(C)C | – | inactive |
| Nc1cnn(-c2ccccc2)c(=O)c1Cl | inconclusive: 35.4 µM | – |
| COc1cc(Cl)c(OC)cc1Cl | – | inactive |
| Cc1cc(C)nc(NC(=O)NS(=O)(=O)c2ccccc2C(=O)OC2COC2)n1 | inconclusive: 0.256 µM | – |

| Compound | AC50 | outcome |
| --- | --- | --- |
| CCCC1COC(Cn2cncn2)(c2ccc(Cl)cc2Cl)O1 (stereo not given) | inconclusive: 20 µM | – |
| CC1COC(Cn2cncn2)(c2ccc(Oc3ccc(Cl)cc3)cc2Cl)O1 (stereo not given) | inconclusive: 0.0124 µM | – |
| Fc1ccc(Oc2ccnc3cc(Cl)cc(Cl)c23)cc1 | inconclusive: 20 µM | – |
| CCc1cccc(C)c1N(C(=O)CCl)C(C)COC (stereo not given) | – | inactive |
| O=C(O)c1cc(Oc2ccc(C(F)(F)F)cc2Cl)ccc1[N+](=O)[O-] | inconclusive: 20 µM | – |
| COP(=O)(NC(C)=O)SC (stereo not given) | inconclusive: 20 µM | – |
| Nc1nc(N)nc(NC2CC2)n1 | inconclusive: 20 µM | – |
| O=c1ccc(=O)[nH][nH]1 | – | inactive |
| CC(C)=CC1C(C(=O)OCc2coc(Cc3ccccc3)c2)C1(C)C (stereo not given) | inconclusive: 0.032 µM | – |
| CCOc1nc(C(Cl)(Cl)Cl)ns1 | – | inactive |
| O=C(O)C(F)(F)C(F)(F)C(F)(F)C(F)(F)C(F)(F)C(F)(F)C(F)(F)F | inconclusive: 20 µM | – |
| COC(=O)N(OC)c1ccccc1COc1ccn(-c2ccc(Cl)cc2)n1 | – | inactive |
| CC(C)Nc1nc(Cl)nc(NC(C)C)n1 | inconclusive: 3.97 µM | – |
| CCOC(=O)CC(SP(=O)(OC)OC)C(=O)OCC (stereo not given) | inconclusive: 20 µM | – |
| CC(C)C1(C)N=C(c2nc3ccccc3cc2C(=O)O)NC1=O (stereo not given) | inconclusive: 1.54 µM | – |
| N#Cc1c(Cl)cccc1Cl | – | inactive |
| CCCCOCN(C(=O)CCl)c1c(CC)cccc1CC | inconclusive: 3.97 µM | – |
| CCC(C)n1c(=O)[nH]c(C)c(Br)c1=O (stereo not given) | inconclusive: 20 µM | – |
| O=C(O)c1c(Cl)ccc2cc(Cl)cnc12 | inconclusive: 20 µM | – |
| CNC(=O)/C=C(\C)OP(=O)(OC)OC | inconclusive: 20 µM | – |

Single entries from the entries so far:
CC(C)C1(C)N=C(c2nc3ccccc3cc2C(=O)O)NC1=O (stereo not given) | AC50: inconclusive: 1.54 µM
O=C(O)C(F)(F)C(F)(F)C(F)(F)C(F)(F)C(F)(F)C(F)(F)C(F)(F)F | AC50: inconclusive: 20 µM
CCCC1COC(Cn2cncn2)(c2ccc(Cl)cc2Cl)O1 (stereo not given) | AC50: inconclusive: 20 µM
